# Percent effect of library compounds

Sequences of proteins named here, by UniProt entry; tags and fusion partners are left off.
UniProt P9WPC5, whole entry: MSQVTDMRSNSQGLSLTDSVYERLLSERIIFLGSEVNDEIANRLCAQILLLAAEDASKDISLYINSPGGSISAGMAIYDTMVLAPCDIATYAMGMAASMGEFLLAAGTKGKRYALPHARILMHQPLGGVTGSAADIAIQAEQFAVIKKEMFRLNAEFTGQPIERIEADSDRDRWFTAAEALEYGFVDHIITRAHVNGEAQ
UniProt P9WPC3, whole entry partner: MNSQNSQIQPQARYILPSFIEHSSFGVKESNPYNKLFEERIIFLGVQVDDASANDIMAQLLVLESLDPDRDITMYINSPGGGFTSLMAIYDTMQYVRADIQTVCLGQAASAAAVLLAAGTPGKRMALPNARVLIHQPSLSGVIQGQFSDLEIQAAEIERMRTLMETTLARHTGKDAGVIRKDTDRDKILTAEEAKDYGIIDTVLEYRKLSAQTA

Each number is a percent effect as filed. The record does not define 0% and 100%; most values in the screen are far below 50% and negative numbers occur (in some assays of this library far below -100). Compounds were drawn at random from those tested, without regard to their results.

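ClpP1P2, Mycobacterium tuberculosis (UniProt P9WPC5 and UniProt P9WPC3). Protease assay of ClpP1P2, read by the AMC dye that it sets free. Compounds at 50 µM. Higher reads as stronger inhibition, judged from the few compounds that gave an IC50. Most other retested compounds had strongly negative values. Size under these conditions: about 69,000 compounds, about 10 of them at 50% or above in at least one test.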

{"compound": "Cc1nc(N2CCCC2)nc2c1CCN(Cc1ccco1)CC2", "effect": 8.221}
{"compound": "CC(=O)N1CCCC1CCc1ccnc(-c2cncnc2)c1", "stereo": "stereo not drawn", "effect": 10.94}
{"compound": "CC(C)CNC[C@H]1COCc2nc3cccnc3n21", "effect": 1.798}
{"compound": "COCCOCC(=O)Nc1cc(C)ccc1F", "effect": 18.99}
{"compound": "COc1ccc(CN2C[C@H](OCC3CCOCC3)[C@H]3COC[C@H]32)cc1", "effect": 1.487}
{"compound": "CNC(=O)[C@@H](c1ccccc1)N1CCC[C@H]1C(=O)NCc1ccccn1", "effect": -3.616}
{"compound": "O=c1c(CN2CCCCCC2)coc(O)c1CN1CCOCC1", "effect": -0.6631}
{"compound": "NC(=O)c1ccc(C2CCCN2C(=O)Cn2nc3ccccc3n2)s1", "stereo": "stereo not drawn", "effect": -14.48}
{"compound": "N#CCCN(c1ccc(F)cc1)S(=O)(=O)CC1CCCCO1", "stereo": "stereo not drawn", "effect": -6.131}
{"compound": "Cn1ccnc1CN1CCN(c2ncnc3ccsc23)CC1", "effect": -2.612}
{"compound": "C/C=C(/C)C(=O)NS(=O)(=O)c1ccc(C(F)(F)F)cc1", "effect": -11.37}
{"compound": "CCn1nc2c(cc1=O)CN(Cc1nc(C)c3ccccc3n1)CC2", "effect": -14.04}
{"compound": "CC(C)C(=O)Nc1cc(C(C)(C)C)nn1-c1ccccn1", "effect": 0.9146}
{"compound": "Cc1csc(CN2C[C@@H]3COC[C@]3(COCC(=O)N(C)C)C2)n1", "effect": -15.83}
{"compound": "CCC(C)N1CCc2c(C(=O)N(C)Cc3ccccn3)nn(C)c2C1", "stereo": "stereo not drawn", "effect": -0.2215}
{"compound": "CCn1cnnc1CN(C)C(=O)c1cc(COc2cccc(F)c2)[nH]n1", "effect": -0.5642}
{"compound": "COc1cc(C(=O)NC2COc3ccccc3C2)ccc1OCC(N)=O", "stereo": "stereo not drawn", "effect": 1.619}
{"compound": "CC(=O)NCCNC(=O)N(C)Cc1ccc2c(c1)OCCO2", "effect": 6.307}
{"compound": "CN(C)Cc1nnc(C2CCN(C(=O)CCc3cccs3)CC2)n1C", "effect": -6.982}
{"compound": "CN(C)S(=O)(=O)N1CCC2(COCc3cnc(-c4ccccc4)nc32)C1", "stereo": "stereo not drawn", "effect": -4.907}
{"compound": "CNS(=O)(=O)CCCNC(C)(C)c1nc(C)cs1", "effect": 0.5576}
{"compound": "COCc1ncc(CN2CCC3(CCNC(=O)CC3)CC2)cn1", "effect": -1.946}
{"compound": "CC(C)Cc1cc(NC(=O)c2cccnc2)n(C)n1", "effect": -3.074}
{"compound": "Cc1cc(C)n(CC2CCCN2C(=O)c2cc[nH]n2)n1", "stereo": "stereo not drawn", "effect": -4.383}
{"compound": "O=C(NCc1ccc(Br)cc1)NCC1CCOC1", "stereo": "stereo not drawn", "effect": -1.936}
{"compound": "CN(Cc1nnc2n1CCC2)C(=O)Cc1ccc2c(c1)CCC2", "effect": -26.93}
{"compound": "Cc1cnc(N2CCC3(CC2)CC(NC(=O)N(C)C)CO3)nc1", "stereo": "stereo not drawn", "effect": 3.944}
{"compound": "CS(=O)(=O)N[C@@H]1CCN(Cc2cccnc2)[C@H]1Cc1cccnc1", "effect": -3.875}
{"compound": "Cc1ncsc1CCC(=O)NCc1cc2n(n1)CCNC2", "effect": -3.291}
{"compound": "NCC(CO)Cc1cccc(OC(F)(F)F)c1", "stereo": "stereo not drawn", "effect": -3.022}
{"compound": "O=C(c1ccco1)N1CCCC2(C1)CN(c1nncs1)CCO2", "stereo": "stereo not drawn", "effect": -6.885}
{"compound": "Nc1ncnc2nc(C3CCN(C(=O)Cc4ccc(F)cc4)C3)ccc12", "stereo": "stereo not drawn", "effect": -6.549}
{"compound": "COc1ccc2c(C)c(C(=O)NCC3CN(S(C)(=O)=O)CCO3)oc2c1", "stereo": "stereo not drawn", "effect": -8.14}
{"compound": "Cc1nc2sccn2c1CN(CCCN(C)C)Cc1ccccn1", "effect": -15.75}
{"compound": "Cc1ccc([C@@H]2CN(S(=O)(=O)c3cccs3)C[C@H]2N(C)C)cc1", "effect": -26}
{"compound": "CO[C@H]1CO[C@@]2(CCCN(S(=O)(=O)c3ccccc3)C2)C1", "effect": 11.77}
{"compound": "O=C(O)c1cc2c(nc1-c1ccncc1)CCN(C1CCOC1)CC2", "stereo": "stereo not drawn", "effect": -2.338}
{"compound": "Cc1cc(C2CCCCN2C(=O)CN2C(=O)OC(C)(C)C2=O)no1", "stereo": "stereo not drawn", "effect": -3.796}
{"compound": "NC(=O)C1CCN(C(=O)NCc2ccccc2-n2cccn2)CC1", "effect": -12.09}
{"compound": "Cc1cc(-c2cnc(NCc3cccnc3)nc2C(C)C)on1", "effect": 0.1981}
{"compound": "O=C(c1cocn1)N1CCC2(CC1)CC(Oc1ccccn1)CO2", "stereo": "stereo not drawn", "effect": 1.684}
{"compound": "CCc1nc(C(=O)N2CCN(C)CC2C)nn1-c1ccccc1Cl", "stereo": "stereo not drawn", "effect": 5.023}
{"compound": "CNc1cccc(C2CCCN(C(=O)c3coc(C)n3)C2)n1", "stereo": "stereo not drawn", "effect": -5.488}
{"compound": "COCCN1CCCN(C(=O)c2scnc2C)CC1", "effect": 3.548}
{"compound": "CCc1nc(CN2CCCN(C(=O)c3ccnc(C)n3)CC2)cs1", "effect": -31.41}
{"compound": "CN1CCC(Cc2noc(-c3cn(Cc4ccc(F)cc4)nn3)n2)CC1", "effect": 1.832}
{"compound": "CCCn1cnnc1CN(C)C(=O)C1CCC(=O)N(C2CCCC2)C1", "stereo": "stereo not drawn", "effect": -3.308}
{"compound": "CCc1nc(CN2CCCN(C(=O)c3cc(C)on3)CC2)cs1", "effect": -5.359}
{"compound": "CC(=O)N(Cc1ncc(C)o1)C1CCN(Cc2nccn2C)C1", "stereo": "stereo not drawn", "effect": -5.111}
{"compound": "COC(=O)c1ccc(N2CCN(CCN3CCOCC3)C(C)C2)cc1", "stereo": "stereo not drawn", "effect": 2.208}
{"compound": "COc1nn(C)c2c1CCCN(C(=O)c1cccs1)C2", "effect": 1.157}
{"compound": "CC(C)c1noc(CN(Cc2cccs2)C2CC2)n1", "effect": -17.82}
{"compound": "CC(C)[C@H](C)NC1CCN(c2ccc(-c3cscn3)cc2)CC1", "effect": -3.388}
{"compound": "Cc1ccoc1C(=O)N1CCn2cc(CN3CCCC3)nc2C1", "effect": -0.8298}
{"compound": "CCCC(=O)N1C[C@@H]2CCN(c3cnccn3)C[C@@H]2C1", "effect": 8.364}
{"compound": "O=C(Nc1nncs1)N1CCCN(C2CCCC2)CC1", "effect": -6.784}
{"compound": "Cc1ncsc1CN1CCC2(CC1)CC(=O)N(Cc1ccc(Cl)cc1)C2", "effect": -6.711}

Some entries from above, unchanged:

Compound,effect
COCc1ncc(CN2CCC3(CCNC(=O)CC3)CC2)cn1,-1.946
Cc1ccc([C@@H]2CN(S(=O)(=O)c3cccs3)C[C@H]2N(C)C)cc1,-26
CO[C@H]1CO[C@@]2(CCCN(S(=O)(=O)c3ccccc3)C2)C1,11.77
Cc1csc(CN2C[C@@H]3COC[C@]3(COCC(=O)N(C)C)C2)n1,-15.83
NC(=O)C1CCN(C(=O)NCc2ccccc2-n2cccn2)CC1,-12.09

The values are deposited in ChEMBL (CHEMBL3988442, “University of Dundee, Small-Polar-MMV Screening Library” (2021)).